PubChem BioAssay AID1259308, NCATS – 2017
Screen: 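Genes whose loss raises luciferase production in HEK293 cells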 (primary screen). Cells: human HEK293 embryonic kidney cells stably expressing firefly luciferase (HEK-CMV-Luc2-Hygro). Knock-down reagent: single siRNA against human genes, 0.8 pmol siRNA per well. Timing: 72 h. Measured: 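Luciferase light (ONE-Glo) measured on one replicate plate set and viability (CellTiter-Glo) on the other, scaled to a negative control siRNA, with robust z-scores and luciferase per cell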. Reading the numbers: total luciferase, z-score: higher = more reporter protein produced. Hit rule: 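An siRNA counts as active if its total luciferase robust z-score exceeds 3; genes with two or more such siRNAs out of three were retested with fresh siRNAs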. Calls: active = raised luciferase; inactive = no rise.
The deposit covers about 59,000 reagents; this is a random part of them. About 1,510 of them (2.6%) were called active. 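Calls use total luciferase alone and ignore viability, so some active siRNAs may act by altering cell number.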 Unmarked entries are inactive. The numbers tell different reagents against one gene apart. Further read-outs or replicates are left out here.

With knock-down of ZMYND15 (GeneID 84225) #1, the record shows total luciferase, z-score -0.994.
Against ZMYND15 (GeneID 84225) #2 the deposit lists total luciferase, z-score 0.99.
After knock-down of ZMYND15 (GeneID 84225) #3 the results were total luciferase, z-score 0.338.
For TTLL7 (GeneID 79739) #1, the values are total luciferase, z-score 0.533.
TTLL7 (GeneID 79739) #2 showed total luciferase, z-score -0.81.
Knock-down of TTLL7 (GeneID 79739) #3 came out at: total luciferase, z-score -0.748.
GHRL (GeneID 51738) #1 showed total luciferase, z-score 0.0253.
Knock-down of GHRL (GeneID 51738) #2 resulted in: total luciferase, z-score 0.0294.
With knock-down of GHRL (GeneID 51738) #3, the record shows total luciferase, z-score 1.6.
Knock-down of RTL10 (GeneID 79680) #1 gave: total luciferase, z-score 0.797.
Depletion of RTL10 (GeneID 79680) #2 came out at: total luciferase, z-score 0.272.
Against RTL10 (GeneID 79680) #3 the deposit lists total luciferase, z-score -1.53.
UGT1A10 (GeneID 54575) #1 gave total luciferase, z-score -0.0689.
After knock-down of UGT1A10 (GeneID 54575) #2, the record shows total luciferase, z-score 2.21.
For UGT1A10 (GeneID 54575) #3, the values are total luciferase, z-score -0.672.

4 entries from above, ordered by “total luciferase, z-score”, descending:
UGT1A10 (GeneID 54575) #2 | total luciferase, z-score: 2.21
UGT1A10 (GeneID 54575) #1 | total luciferase, z-score: -0.0689
UGT1A10 (GeneID 54575) #3 | total luciferase, z-score: -0.672
RTL10 (GeneID 79680) #3 | total luciferase, z-score: -1.53

More records:
Silencing of IL11RA (GeneID 3590) #1 gave: total luciferase, z-score 0.208.
After knock-down of IL11RA (GeneID 3590) #2, the record shows total luciferase, z-score 0.0353.
Silencing of IL11RA (GeneID 3590) #3 resulted in: total luciferase, z-score -0.819.
Silencing of TMED4 (GeneID 222068) #1 resulted in: total luciferase, z-score -1.01.
With knock-down of TMED4 (GeneID 222068) #2, the record shows total luciferase, z-score -0.144.
Knock-down of TMED4 (GeneID 222068) #3 gave: total luciferase, z-score 1.15.
For VEGFA (GeneID 7422) #1, the values are total luciferase, z-score 0.2.
With knock-down of VEGFA (GeneID 7422) #2, the record shows total luciferase, z-score 0.485.
After knock-down of VEGFA (GeneID 7422) #3, the record shows total luciferase, z-score 0.233.
Against GPX2 (GeneID 2877) #1, the values are total luciferase, z-score -0.278.
Against GPX2 (GeneID 2877) #2, the values are total luciferase, z-score -0.465.
GPX2 (GeneID 2877) #3 scored total luciferase, z-score -0.433.
Knock-down of HBE1 (GeneID 3046) #1 came out at: total luciferase, z-score -0.136.
After knock-down of HBE1 (GeneID 3046) #2 the results were total luciferase, z-score 5.5 (active).
Against HBE1 (GeneID 3046) #3, the values are total luciferase, z-score -0.837.
Silencing of DOCK8 (GeneID 81704) #1 resulted in: total luciferase, z-score -0.0866.
Against DOCK8 (GeneID 81704) #2, the entry reads total luciferase, z-score -0.285.
Against DOCK8 (GeneID 81704) #3, the entry reads total luciferase, z-score 0.216.
